{
  "source": "patent US20220096597A1",
  "about": "“CARDIO-PROTECTIVE EFFECT OF VASOCONSTRICTION-INHIBITING FACTOR (VIF)” (Rheinisch-Westfälische Technische Hochschule Aachen (RWTH), priority 2019, published 2022)",
  "key": {"[1]": {"system": "mice with induced myocardial infarction", "test": "Protective effect of VIF on heart tissue after myocardial infarct triggered by LAD occlusion", "assay_type": "in vivo"}, "[2]": {"system": "male Wistar rats", "test": "Blood pressure lowering effect of VIF in angiotensin II-treated rats", "assay_type": "in vivo, rat", "conditions": "angiotensin II s.c. 0.4 mg per kg per day, VIF i.p. 1 mg per ml, FIG. 2"}, "[3]": {"system": "C57BL/6N mice with induced myocardial infarction", "test": "Histology and immunohistochemistry of hearts after induced infarction", "assay_type": "in vivo", "conditions": "infarcted mouse heart", "method": "To further study the newly identified effects of VIF (according to SEQ ID NO: 1), and especially in vivo, 8 to 10 week old wild type male C57BL/6N mice (Charles River, Germany) were intubated under anesthesia (100 mg/kg ketamine, 10 mg/kg xylazine, i.p.) and analgesia (0.1 mg/kg buprenorphine). The mice were ventilated with positive pressure and oxygenation using a rodent respirator (Harvard Apparatus, Germany). A left-sided thoracotomy was then performed, and the MI (myocardial infarction) was induced by occlusion ligation of the left anterior descending artery (LAD) with 0/7 silk, as previously described in Curaj et al. (Minimally invasive surgical procedure of inducing myocardial infarction in mice. J Vis Exp. 2015:e52197). The rib, muscle and skin incisions were closed with separate sutures. Analgesia was continued for five days after the induced infarction using 0.1 mg/kg buprenorphine every eight hours. Thereafter, the hearts were removed at defined times (after 0, 1, 4, 7, 14, 21, 28 days) and prepared for further analysis.\nVIF was dissolved at 6.7 μg/ml (1 mmol/l) in NaCl and loaded into 100 μl of Alzet-type 1002 osmotic pumps (0.25 μl/hour, Charles River, Cologne, Germany), resulting in a dose of 0.8 μg/kg per 24 hours. The Alzet pumps were implanted 24 hours before MI induction. The pumps for the controls were accordingly filled with NaCl only. […]\nA Gömöri trichrome staining was performed to determine the infarct size. Subsequently, three slices per mouse from 3 to 5 different mice were analyzed using ImageJ. after one of anti-SMA antibody (smooth muscle actin, DAKO, FIG. 6D), anti-MAC3 antibody (BD Pharmingen, FIG. 6B), anti-MPO antibody (Neomarkers, FIG. 6A) and anti-CD31 antibody (Santa Cruz Biotechnology, FIG. 6E) staining, followed by staining with fluorescein isothiocyanate (FITC)—or a Cy3-conjugated secondary antibody (DAKO, Germany). Positively stained cells or double-positive stained cells (FIG. 6C for anti-MAC3/MPO) were counted in three different fields per slice and expressed as cells per field of view (200× magnification)."}, "[4]": {"system": "C57BL/6N mice with induced myocardial infarction", "test": "Echocardiography in the myocardial infarction animal model (osmotic pump VIF)", "assay_type": "in vivo", "conditions": "VIF 0.8 μg/kg per 24 hours via osmotic pump"}, "[5]": {"system": "HL-1 cells (heart muscle cell line)", "test": "Oxygen consumption rate (Seahorse XF Cell Mito Stress Test)", "assay_type": "cell-based", "conditions": "VIF titrated from 0.1 to 1 μM"}},
  "note": "Not every detail of the peptide structures is certain; ends, links or a residue may be inferred. Ends that are not written are not given here.",
  "data": [
    {"sequence": "HSGFEDELSEVLENQSSQAELKEAVEEPSSKDVME [VIF]", "values": [
      {"measurement": "infarct size relative to control group", "setting": "[1]; mice treated with VIF 2 days before and 2 days after LAD occlusion", "result": "only about half as large as in the control group"},
      {"measurement": "tissue affected by the infarct as a percentage of the ventricle", "setting": "[1]; mice treated with VIF 2 days before and 2 days after LAD occlusion, histological sections, TTC", "result": "about 25%"},
      {"measurement": "post-infarction ejection fraction, % of the function in the healthy state", "setting": "[1]; mice, 2-day VIF treatment before and after infarct, average", "result": 30, "unit": "%"},
      {"measurement": "effect on blood pressure", "setting": "[2]", "result": "antihypertensive effect"},
      {"measurement": "number of monocytes (anti-MAC3)", "setting": "[3]; day 7, single stain, FIG. 6B", "result": "slight but statistically significant increase"},
      {"measurement": "number of SMA positive cells in the field of view (smooth muscle cell marker)", "setting": "[3]; day 7, FIG. 6D", "result": "statistically significant level of increased myofibroblast count and angiogenesis"},
      {"measurement": "number of CD31 positive cells in the field of view (endothelial cell marker)", "setting": "[3]; day 7, FIG. 6E", "result": "statistically significant level of increased myofibroblast count and angiogenesis"},
      {"measurement": "ejection fraction of the heart after myocardial infarction (echocardiography)", "setting": "[4]; FIG. 5A", "result": "significantly increases the ejection fraction"},
      {"measurement": "blood pressure", "setting": "[4]; FIG. 5B", "result": "slight reduction in blood pressure"},
      {"measurement": "FCCP-stimulated OCR versus untreated control cells", "setting": "[5]; 2.5 μM FCCP, FIG. 7B", "result": "significantly higher OCR values"},
      {"measurement": "FCCP-stimulated OCR versus untreated control cells", "setting": "[5]; 5 μM FCCP, FIG. 7A", "result": "significantly higher OCR values"}
    ]}
  ]
}
